# Assay results published in patent US8518859B2, “Method for increasing yield of staple food crop” (National University Corporation Shizuoka University, priority 2009, dated 2013).
# Assays:
# Type in all cases: in vivo, rice (genus Oryza)
# [1] = tested on: Rice (cultivar: "Nipponbare"); test: Yield-increasing effect in hydroponic culture of rice (Example 1); conditions: AHX 50 μM, hydroponic culture 97 days, n=6
# Protocol: Rice (cultivar: “Nipponbare”) was used in the test. Seeds thereof were sown in a nursery box, and after 20 days of cultivation, the resulting rice seedlings were transplanted one by one to a pot (1/5000-a) and cultivated for 1 week with tap water.
# After the cultivation with tap water, the thus obtained rice plants were cultured in a culture medium added with the AHX (50 μM), which was synthesized in the above, in an outdoor environment over a period of 97 days starting in July.
# During the periods from the 8th day to the 32nd day and the period from the 73rd day to the 97th day after the transplantation, the culture was carried out in a medium having a half concentration of the undiluted culture medium, and during the period from the 33rd day to the 72nd day, the undiluted culture medium was used.
# Water and nutrients were supplied once every 3 days. As the medium used for the addition, the culture medium for the AHX-treated section and the culture medium for the control section were respectively used in the AHX-treated section and the control section. It is noted here, however, that the culture medium was replaced once a week in the case of hydroponic culture.
# The cereal crops obtained by the culture were dried for 2 weeks and the following items were measured: brown rice mass; water content, carbon content and nitrogen content of brown rice; size and number of brown rice (per plant); leaf length; culm length; panicle length; number of panicles; tiller number; and mass of the above-ground and underground parts. Here, the size of brown rice means the mass per grain determined from the brown rice mass (g/100 brown rice grains) and the number of brown rice refers to a value obtained by dividing the brown rice weight (g/plant) by the brown rice weight (g/100 brown rice grains) (number of plants n=6).
# rice (Nipponbare) [2] = test: Yield-increasing effect in soil culture of rice 1 (Example 2); conditions: AHX 50 μM, soil culture 97 days, n=7
# Protocol: Soil culture was carried out for 97 days starting in July in the same manner as in Example 1, except that seedlings of rice (Nipponbare) were transplanted one by one to a soil (in 1/5000-a pot) which contains a fertilizer containing N (1,440 mg), P2O5 (12 mg), K2O (760 mg) and CaO (806 mg).
# Water and nutrients were supplied once a day. As the medium used for the addition, the culture medium for the AHX (50 μM)-treated section and the culture medium for the control section were respectively used in the AHX (50 μM)-treated section and the control section. It is noted here that, unlike the case of hydroponic culture, the culture medium was not replaced.
# The cereal crops obtained by the soil culture were dried for 2 weeks and the following items were measured in the same manner as in Example 1: brown rice mass; water content, carbon content and nitrogen content of brown rice; size and number of brown rice (per plant); leaf length; culm length; panicle length; number of panicles; tiller number; and mass of the above-ground part (n=7).
# rice (Nipponbare) [3] = test: Yield-increasing effect in soil culture of rice 2 (Example 3); conditions: n=6
# Protocol: Soil culture was carried out from Jun. 10, 2009 to Sep. 29, 2009 in the same manner as in Example 1, except that seedlings of rice (Nipponbare) obtained by a 30-day cultivation were transplanted one by one to a soil (in 1/5000-a pot) which contains a fertilizer containing N (1,440 mg), P2O5 (12 mg), K2O (760 mg) and CaO (806 mg).
# Water and nutrients were supplied once a day. As the medium used for the addition, the culture medium for the AHX (5 μM)-treated section, the culture medium for the ICA (2 μM)-treated section and the culture medium the control section were respectively used in the AHX (5 μM)-treated section, the ICA (2 μM)-treated section and the control section. It is noted here that, unlike the case of hydroponic culture, the culture medium was not replaced.
# The cereal crops obtained by the soil culture were dried for 2 weeks and the following items were measured: brown rice mass; water content of brown rice; size and number of brown rice (per plant); panicle length; culm length; number of panicles; and mass of the above-ground part (n=6).
SMILES,Total carbon content (mg/g) of brown rice [1] [mg/g],Total nitrogen content (mg/g) of brown rice [1] [mg/g],Water content (%) of brown rice [1] [%],Total carbon content (mg/g) of brown rice (rice (Nipponbare) [2]) [mg/g],Total nitrogen content (mg/g) of brown rice (rice (Nipponbare) [2]) [mg/g],Water content (%) of brown rice (rice (Nipponbare) [2]) [%],Water content (%) of brown rice (rice (Nipponbare) [3]; 5 μM) [%],Water content (%) of brown rice (rice (Nipponbare) [3]; 2 μM) [%]
"O=c1[nH]nnc2nc[nH]c12 [AHX, 2-azahypoxanthine]",429,16.3,13.2,421,12.3,14.0,11.8,
"NC(=O)c1c[nH]cn1 [ICA, imidazole-4-carboxamide]",,,,,,,,11.8
